Patent US20040110803A1, “Methods and compositions for the use of D-malic acid to decrease serum triglyceride, cholesterol and lipoprotein levels” (priority 2002, published 2004)
Structures can show the parent of a compound that is named as a salt. For at least one compound, name, drawing or mass did not settle the structure.

Test system: Zucker fa/fa rat
Test: Experiment I: body weight and serum analysis of Zucker fa/fa rats given D,L-malic acid, sodium salt in drinking water
Format: in vivo
Settings: 12 weeks Treatment; mean ± SEM; in mg/dL (unit assumed)
Text: The Zucker fa/fa rat model was selected to test the effects of malic acid supplements to the diet. The Zucker fa/fa rat is a genetically obese rat associated to elevated leptin levels in the blood. Among humans and most animal models, leptin is known to […], leading to elevated caloric intake and obesity. Associated with the leptin production is an elevation in serum insulin (Giridharan 1998). Thus, obesity can arise from the increase food intake and/or the lipogenic effects of insulin on adipose tissue and liver.
Two separate experiments were conducted on the Zucker fa/fa rat. The first experiment served as a pilot study for the second. In Experiment I, ten male, 7-week-old Zucker fa/fa rats were divided into two parametric groups based upon the results of a clinical serum analysis for lipids, glucose, hepatic enzymes, and ions. […] The control group of five rats received only tap water. After 2, 4, 7, and 10 and 12 weeks of treatment, 1-2 mL whole blood was collect from each rat via the tail caudal vein and the serum retained for analysis. All serum analysis was conducted in the out-patient clinical laboratory of the University Hospital of the University of Alabama at Birmingham with a Synchron LX System. The following methods for each parameter are used in their automated clinical systems.

SMILES: O=C(O)CC(O)C(=O)O (racemic) [D,L-malic acid, D,L-malic acid, sodium salt]
- Serum BUN: 16 ± 5 = 0.9
